PubChem BioAssay AID720505 – Drosophila RNAi Screening Center, 2013
Screen: 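Fly regulators or components of the CRAC channel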 (primary screen). Cell system: Drosophila S2R+ cells. Reagents: long dsRNA against Drosophila genes. Challenge: thapsigargin (2 µM) in calcium-free buffer to empty internal stores, then 2 mM calcium added back. Read-out: 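Stores emptied by 2 µM thapsigargin without calcium, then 2 mM calcium re-added; fluo-4 fluorescence followed by FLIPR in 384-well plates, per-well averaged endpoint, raw; two screen passes, some wells retested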. Direction: calcium signal: higher = more calcium entry after store depletion. Hit rule: 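Knock-downs counted as hits when calcium entry dropped relative to STIM1 positive and Rho1 negative controls present on each plate; roughly 1500 genes called, with reductions of differing size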. Calls: active = called as lowering calcium entry; inactive = not called.
In all, the deposit lists about 20,000 reagents; shown is an unselected part of those that have a named target and a result. Of all reagents, about 2,100 (10%) were called active. 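Raw plate signals without normalisation; calls rest on control-based scores that were not deposited; replicate 2 separates called from uncalled poorly.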 Unmarked entries are inactive. Names joined by + are all predicted targets of the reagent. Not stated in the record: the amount of reagent, the time to read-out.

{"gene": "Or59b", "DRSC id": "DRSC04632", "calcium signal, replicate 1": 93.1, "calcium signal, replicate 2": 186}
{"gene": "CG10332 (retired record) + IM18", "DRSC id": "DRSC04064", "calcium signal, replicate 1": 136, "calcium signal, replicate 2": 151}
{"gene": "nxf4", "DRSC id": "DRSC12548", "calcium signal, replicate 1": 151, "calcium signal, replicate 2": 125}
{"gene": "gdl-ORF39 + gdl", "DRSC id": "DRSC11350", "calcium signal, replicate 1": 98.4, "calcium signal, replicate 2": 151}
{"gene": "fusl", "DRSC id": "DRSC02351", "calcium signal, replicate 1": 146, "calcium signal, replicate 2": 177}
{"gene": "CG14075", "DRSC id": "DRSC10080", "calcium signal, replicate 1": "69.1 (active)", "calcium signal, replicate 2": 129}

Only “calcium signal, replicate 1”, for 2 of the entries above:
nxf4 [DRSC12548] = 151
gdl-ORF39 + gdl [DRSC11350] = 98.4

Continued:
{"gene": "TRAM", "DRSC id": "DRSC18178", "calcium signal, replicate 1": 97.2, "calcium signal, replicate 2": 112}
{"gene": "TRAM", "DRSC id": "DRSC18651", "calcium signal, replicate 1": 141, "calcium signal, replicate 2": 132}
{"gene": "Cc2d2a", "DRSC id": "DRSC06750", "calcium signal, replicate 1": 160, "calcium signal, replicate 2": 126}
{"gene": "Cc2d2a", "DRSC id": "DRSC06779", "calcium signal, replicate 1": 161, "calcium signal, replicate 2": 132}
{"gene": "CG18428", "DRSC id": "DRSC15326", "calcium signal, replicate 1": 187, "calcium signal, replicate 2": 202}
{"gene": "CG42319", "DRSC id": "DRSC06645", "calcium signal, replicate 1": 137, "calcium signal, replicate 2": 132}
{"gene": "CG42319", "DRSC id": "DRSC06646", "calcium signal, replicate 1": 142, "calcium signal, replicate 2": 159}
{"gene": "CG42319", "DRSC id": "DRSC22426", "calcium signal, replicate 1": 124, "calcium signal, replicate 2": 156}
